Among the data in PubChem BioAssay AID248 (DTP/NCI, 2004) are survivor count and T/C values, retold here.

The list is a part of this screen's results and no random one: it gathers tests that were run many times, whatever their T/C, doses with no T/C, and many T/C values between a quarter and a half above the control. Other doses and runs of a compound stand elsewhere. T/C: endpoint of the treated group in % of that of the vehicle group. Some entries give survivors of the animals treated and no T/C: the source files T/C as zero there, which appears to mark a toxic dose or a test without result, not a measured value. Some doses without a T/C left all or most animals alive at the check, yet need not have been tolerated: survival well below the control is almost never listed, so the zero probably covers shortened survival too. Counts of survivors are from the toxicity check (mostly the fifth day) where no day follows; animals may have died later. Schedule codes are those of the source, read here as Q, the interval in days (D) or hours (H), X, the number of doses. Some schedule codes hold Z or #, which are not explained here. For survival time, the PubChem record calls one and a half times the control and up active, and a quarter to a half above the control has no call in these data; cut-offs in other NCI protocols can differ.

This experiment has as its system L1210 leukemia ip in BDF1 mice, survival T/C. In words: NCI In Vivo Anticancer Drug Screen. Data for tumor model L1210 Leukemia (intraperitoneal) in B6D2F1 (BDF1) mice. To be noted: T/C endpoint: mean survival time, higher T/C = longer survival.
[1] abbreviates: dose: 300.0 mg/kg/injection, schedule: Q01DX001 (ip), vehicle: carboxymethylcellulose (CMC).
The mark [2] stands for this setting: dose: 100.0 mg/kg/injection, schedule: Q04DX003 (ip), vehicle: saline.
The mark [3] stands for this setting: dose: 200.0 mg/kg/injection, schedule: Q04DX003 (ip), vehicle: saline.
The mark [4] stands for this setting: dose: 400.0 mg/kg/injection, schedule: Q04DX003 (ip), vehicle: saline.
Where [5] appears, read: dose: 400.0 mg/kg/injection, schedule: Q04DX002 (ip), vehicle: Klucel (hydroxypropylcellulose) (HPC).
[6] abbreviates: dose: 400.0 mg/kg/injection, schedule: Q04DX003 (ip), vehicle: other.

As for `COc1ccc(CC[n+]2ccc(C#N)c(C(C)=O)c2)cc1OC`, under setting [1], the survivor count is listed as 1 of 6.
In the case of `O=C(Nc1cccc(C(F)(F)F)c1)c1ccc(Cl)c(Cl)c1`, the survivor count (dose: 200.0 mg/kg/injection, schedule: Q01DX009 (ip), vehicle: gum acacia) is recorded as 6 of 6.
For `c1ccc2c3c(sc2c1)CNCC3`, for the setting “dose: 100.0 mg/kg/injection, schedule: Q01DX009 (ip), vehicle: Klucel (hydroxypropylcellulose) (HPC)”, the survivor count is 3 of 6.
`CN1CCN=C1c1ccc(NC(=O)c2ccc(C(=O)Nc3ccc(C4=NCCN4C)cc3)c([N+](=O)[O-])c2)cc1`: the survivor count (dose: 12.0 mg/kg/injection, schedule: Q01DX Z (ip), vehicle: carboxymethylcellulose (CMC)) is 3 of 6.
Take `Cc1ccc(Oc2cccc3c[n+](C)ccc23)cc1`: the survivor count (dose: 100.0 mg/kg/injection, schedule: Q04DX002 (ip), vehicle: DMSO) is on record as 3 of 3; the survivor count (dose: 200.0 mg/kg/injection, schedule: Q04DX002 (ip), vehicle: DMSO) is 3 of 3; the survivor count (dose: 400.0 mg/kg/injection, schedule: Q04DX002 (ip), vehicle: DMSO) is given as 0 of 3.
Regarding `CCCCNc1cc2c3c(c1)CCCN3CCC2`, the survivor count is listed as 0 of 6 (dose: 50.0 mg/kg/injection, schedule: Q01DX009 (ip), vehicle: saline); 1 of 6 under setting [2]; 0 of 6 under setting [3]; 0 of 6 under setting [4].
As to `CC1=C(Br)C(=O)C(c2c(C)cc(C)c(Br)c2C)=C(Br)C1=O`, the survivor count (dose: 400.0 mg/kg/injection, schedule: Q01DX001 (ip), vehicle: Klucel (hydroxypropylcellulose) (HPC)) is reported as 6 of 6.
Turning to `CCCc1nc2c(nc1C)C(=O)C=CC2=O`, the survivor count is 5 of 6 (dose: 19.0 mg/kg/injection, schedule: Q01DX001 (ip), vehicle: other); 0 of 6 (dose: 38.0 mg/kg/injection, schedule: Q01DX001 (ip), vehicle: other); 0 of 6 (dose: 75.0 mg/kg/injection, schedule: Q01DX001 (ip), vehicle: other); 0 of 6 (dose: 150.0 mg/kg/injection, schedule: Q01DX001 (ip), vehicle: other); 0 of 6 (dose: 300.0 mg/kg/injection, schedule: Q01DX001 (ip), vehicle: other).
On to `CC1(C)CN1P(=O)(Oc1ccc([N+](=O)[O-])cc1)N1CC1(C)C` (stereo not drawn), for which the survivor count under setting [5] was 0 of 3.
With `CNS(=O)(=O)c1ccc(NC(=O)CCl)cc1`, the survivor count under setting [6] is listed as 3 of 6.
`CC(C)CCCC(C)C1CCC2C3CC(=O)NC4CC(Cl)CCC4(C)C3CCC12C` (stereo not drawn): the survivor count is 6 of 6 under setting [3] and 6 of 6 under setting [4].
Consider `O=c1c2ccccc2[nH]c2ncccc12`, for which, under setting [5], the survivor count is 0 of 3.
`O=NN(CCCl)C(=O)Nc1ccc(CCCl)cc1`: the T/C (dose: 5.0 mg/kg/injection, schedule: Q01DX001 (ip), vehicle: carboxymethylcellulose (CMC)) is 129 % of control. Besides, the survivor count runs as follows: (dose: 75.0 mg/kg/injection, schedule: Q01DX009 (ip), vehicle: carboxymethylcellulose (CMC)) 6 of 6; (dose: 112.5 mg/kg/injection, schedule: Q01DX001 (ip), vehicle: carboxymethylcellulose (CMC)) 6 of 6; (dose: 112.5 mg/kg/injection, schedule: Q01DX009 (ip), vehicle: carboxymethylcellulose (CMC)) 3 of 6; (dose: 150.0 mg/kg/injection, schedule: Q01DX001 (ip), vehicle: carboxymethylcellulose (CMC)) 3 of 6; under setting [1], 2 of 6.
Regarding `Cl/C=C\C[N+]12CN3CN(CN(C3)C1)C2`, the survivor count under setting [2] is 3 of 6.
As to `O=C(C=C(C(F)(F)F)C(F)(F)F)c1ccc([N+](=O)[O-])cc1`, the survivor count (dose: 12.5 mg/kg/injection, schedule: Q01DX009 (ip), vehicle: other) is 1 of 6; the survivor count (dose: 50.0 mg/kg/injection, schedule: Q04DX003 (ip), vehicle: other) is 1 of 6; the survivor count (dose: 100.0 mg/kg/injection, schedule: Q04DX003 (ip), vehicle: other) is 4 of 6; the survivor count (dose: 200.0 mg/kg/injection, schedule: Q04DX003 (ip), vehicle: other) is listed as 3 of 6; the survivor count under setting [6] is recorded as 1 of 6.
For the compound `N#C/C(=C/c1c(Cl)cccc1Cl)C(N)=O`, the survivor count (dose: 150.0 mg/kg/injection, schedule: Q01DX001 (ip), vehicle: saline) was 2 of 6 and the survivor count (dose: 300.0 mg/kg/injection, schedule: Q01DX001 (ip), vehicle: saline) is on record as 0 of 6.
Consider `CC1(C)c2ccccc2C(=O)C1(Br)Cc1ccccc1` (stereo not drawn), for which the survivor count is listed as 0 of 6 (dose: 200.0 mg/kg/injection, schedule: Q01DX009 (ip), vehicle: saline with Tween-80) and 0 of 6 (dose: 400.0 mg/kg/injection, schedule: Q01DX009 (ip), vehicle: saline with Tween-80).
